The entries are a selection whose mix differs from that of the whole data set. For part of these data: At the low end of the ranking, values are background and their order means little. The list shows a part of the results. For part of these data: The source does not settle which construct or isoform was used.
Tests used:
Assay in all cases: DAPPL (digital affinity profiling via proximity ligation, sequencing)
Conditions in all cases: 10 mM Tris-HCl pH 7.5, 50 mM NaCl, 1 mM DTT, 4% glycerol, room temperature, 30 min; GST-TFs on glutathione beads, 16-mer random dsDNA library, 0.1% …; high values mean tight binding; double strand, one strand shown; scale: fold enrichment (6-mer frequency, TF over GST control)
ERG = target: T1, ERG (UniProt P11308)
T1 sequence: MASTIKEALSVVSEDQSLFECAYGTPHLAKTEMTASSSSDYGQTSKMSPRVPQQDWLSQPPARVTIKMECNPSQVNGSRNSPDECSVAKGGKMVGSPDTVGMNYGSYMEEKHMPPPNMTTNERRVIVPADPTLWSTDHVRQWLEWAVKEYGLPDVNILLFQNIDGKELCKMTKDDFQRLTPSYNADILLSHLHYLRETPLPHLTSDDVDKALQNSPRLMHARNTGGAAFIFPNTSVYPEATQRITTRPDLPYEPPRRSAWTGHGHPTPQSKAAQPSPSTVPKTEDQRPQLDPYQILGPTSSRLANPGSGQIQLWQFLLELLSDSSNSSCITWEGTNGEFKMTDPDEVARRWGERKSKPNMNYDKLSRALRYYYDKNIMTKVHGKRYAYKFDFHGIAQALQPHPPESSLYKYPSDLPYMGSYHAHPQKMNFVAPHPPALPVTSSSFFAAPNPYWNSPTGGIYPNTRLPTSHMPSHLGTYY

Amino acid sequences for entries named in this document (tags omitted). A change or cut given only in a name is not applied to a line headed by its entry.
UniProt P32519: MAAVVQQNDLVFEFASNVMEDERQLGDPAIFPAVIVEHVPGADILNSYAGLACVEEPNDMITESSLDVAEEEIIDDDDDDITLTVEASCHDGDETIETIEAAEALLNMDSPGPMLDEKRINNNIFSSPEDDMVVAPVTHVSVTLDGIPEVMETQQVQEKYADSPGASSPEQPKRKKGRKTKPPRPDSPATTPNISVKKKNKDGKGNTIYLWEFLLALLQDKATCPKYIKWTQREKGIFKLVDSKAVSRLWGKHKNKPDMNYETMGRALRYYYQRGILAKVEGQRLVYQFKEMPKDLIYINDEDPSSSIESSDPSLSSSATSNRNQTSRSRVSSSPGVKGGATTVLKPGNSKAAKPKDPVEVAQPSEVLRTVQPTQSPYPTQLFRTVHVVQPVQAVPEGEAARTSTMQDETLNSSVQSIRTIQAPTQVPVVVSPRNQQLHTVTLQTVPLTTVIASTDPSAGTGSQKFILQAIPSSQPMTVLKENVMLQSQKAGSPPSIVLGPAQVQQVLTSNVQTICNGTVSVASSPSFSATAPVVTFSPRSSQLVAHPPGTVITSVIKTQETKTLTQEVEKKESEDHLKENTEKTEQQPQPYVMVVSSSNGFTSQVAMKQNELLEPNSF
UniProt P50549: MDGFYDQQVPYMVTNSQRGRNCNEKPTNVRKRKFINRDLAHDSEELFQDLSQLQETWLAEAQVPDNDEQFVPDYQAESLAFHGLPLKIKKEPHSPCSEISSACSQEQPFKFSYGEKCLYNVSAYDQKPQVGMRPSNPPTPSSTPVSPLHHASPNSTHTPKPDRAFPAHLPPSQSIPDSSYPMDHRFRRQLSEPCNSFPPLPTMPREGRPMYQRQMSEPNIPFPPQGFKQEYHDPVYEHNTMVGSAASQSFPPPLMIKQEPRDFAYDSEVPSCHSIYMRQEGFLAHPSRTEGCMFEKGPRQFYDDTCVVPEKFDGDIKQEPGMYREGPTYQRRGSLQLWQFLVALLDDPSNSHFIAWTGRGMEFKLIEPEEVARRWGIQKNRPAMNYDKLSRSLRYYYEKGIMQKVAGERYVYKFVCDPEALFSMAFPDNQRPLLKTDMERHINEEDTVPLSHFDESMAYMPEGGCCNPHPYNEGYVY

ELF1 = ELF1 (UniProt P32519)
ELK4 = target: T2, ELK4 (UniProt P28324-2)
T2 sequence: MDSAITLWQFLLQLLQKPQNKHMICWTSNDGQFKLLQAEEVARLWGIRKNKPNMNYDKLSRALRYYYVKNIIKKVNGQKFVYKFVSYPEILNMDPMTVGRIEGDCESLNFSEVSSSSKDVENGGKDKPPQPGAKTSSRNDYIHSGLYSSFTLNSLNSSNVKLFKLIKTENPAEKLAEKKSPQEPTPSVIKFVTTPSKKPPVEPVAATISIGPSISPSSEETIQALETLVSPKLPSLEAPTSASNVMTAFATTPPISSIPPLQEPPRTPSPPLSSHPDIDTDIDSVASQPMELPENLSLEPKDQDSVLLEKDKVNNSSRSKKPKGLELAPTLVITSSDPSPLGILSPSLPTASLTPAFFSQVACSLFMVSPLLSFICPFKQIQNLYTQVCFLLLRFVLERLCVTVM

ETV4 = target: T3, ETV4 (UniProt P43268)
T3 sequence: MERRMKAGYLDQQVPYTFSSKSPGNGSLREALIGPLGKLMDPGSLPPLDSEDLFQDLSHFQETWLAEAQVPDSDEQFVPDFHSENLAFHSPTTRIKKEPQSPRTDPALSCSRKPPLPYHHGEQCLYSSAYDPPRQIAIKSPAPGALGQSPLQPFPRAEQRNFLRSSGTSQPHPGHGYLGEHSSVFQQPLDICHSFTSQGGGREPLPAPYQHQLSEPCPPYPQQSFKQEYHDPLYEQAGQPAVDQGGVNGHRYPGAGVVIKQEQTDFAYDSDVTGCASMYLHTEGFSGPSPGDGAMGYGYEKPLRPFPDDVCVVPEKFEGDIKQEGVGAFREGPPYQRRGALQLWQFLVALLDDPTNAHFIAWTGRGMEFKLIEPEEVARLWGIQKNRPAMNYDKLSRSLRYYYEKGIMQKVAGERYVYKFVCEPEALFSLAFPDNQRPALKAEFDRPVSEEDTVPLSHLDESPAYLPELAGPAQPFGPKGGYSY

ETV1 = ETV1 (UniProt P50549)
ERF = target: T4, ERF (UniProt P50548)
T4 sequence: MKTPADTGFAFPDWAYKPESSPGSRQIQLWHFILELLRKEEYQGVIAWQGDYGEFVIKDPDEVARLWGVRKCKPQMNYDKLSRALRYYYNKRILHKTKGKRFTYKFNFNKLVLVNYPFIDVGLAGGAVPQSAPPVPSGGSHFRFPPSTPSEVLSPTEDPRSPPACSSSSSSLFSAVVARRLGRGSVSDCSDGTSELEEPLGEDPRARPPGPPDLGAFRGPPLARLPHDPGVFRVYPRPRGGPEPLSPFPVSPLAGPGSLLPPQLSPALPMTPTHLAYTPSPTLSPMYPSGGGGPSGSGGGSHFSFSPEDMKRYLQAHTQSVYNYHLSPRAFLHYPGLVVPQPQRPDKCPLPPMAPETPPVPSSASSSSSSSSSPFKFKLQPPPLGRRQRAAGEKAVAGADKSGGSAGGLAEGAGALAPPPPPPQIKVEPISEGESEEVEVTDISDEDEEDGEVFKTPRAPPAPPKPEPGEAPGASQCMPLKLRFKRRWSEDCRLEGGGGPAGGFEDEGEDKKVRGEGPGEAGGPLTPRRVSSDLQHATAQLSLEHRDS

Sequence	binding signal (ERG)	binding signal (ELF1)	binding signal (ELK4)	binding signal (ETV4)	binding signal (ETV1)	binding signal (ERF)
TTCGGG	0.93	0.936	0.797	0.946	0.893	0.884
GCGACA	0.953	1	0.986	0.971	0.916	1.04
AGGCAC	0.885	0.88	0.891	0.894	0.902	0.857
GGCATA	0.908	0.832	0.923	0.905	0.887	0.933
TCCGAG	0.928	0.944	0.864	0.913	0.809	0.877
AGGTGT	0.827	0.763	0.807	0.825	0.884	0.827
AGATCA	0.787	0.889	0.803	0.811	0.933	0.907
ACAAGA	0.96	0.977	0.896	0.908	0.973	0.983
ACCGGT	0.967	0.913	0.915	0.927	0.932	0.907
ACAAGG	0.979	0.989	0.879	0.906	0.96	0.953
GAAAGT	0.812	0.841	0.901	0.852	0.809	0.88
GGAATG	0.885	0.854	0.874	0.893	0.793	0.874
GTTGGC	0.87	0.947	0.943	0.874	0.848	0.84
AGCGAA	0.938	0.918	0.945	0.901	0.927	0.939
CTAGTG	0.833	0.907	0.807	0.859	0.819	0.934
TTGAGA	0.875	0.873	0.992	0.815	0.86	0.924
AAAGTC	0.93	0.93	1.08	0.953	0.992	0.956

Quoted at random: two records from the list, in no set order.
Sequence	binding signal (ERG)	binding signal (ELF1)	binding signal (ELK4)	binding signal (ETV4)	binding signal (ETV1)	binding signal (ERF)
TTCGGG	0.93	0.936	0.797	0.946	0.893	0.884
TCCGAG	0.928	0.944	0.864	0.913	0.809	0.877

Reference: paper PMC7862700
